Reference: patent US7790682B1, “Engineered human acidic fibroblast growth factors and associated methods” (The Florida State University Research Foundation, Inc., priority 2003, dated 2010)

Assay: Isothermal titration calorimetry, affinity for sucrose octasulfate
Type: binding
Settings: ITC, 298K, pH 6.60, single-site model

Q: For “WT*: Wild type (his-tagged) 140 amino acid form of human FGF-1, SEQ ID NO: 4 [reference compound]”, which “Stoichiometry (n)” value is on record?
A: The value was 1.22 ± 0.03.

Q: What about the ΔH of the same molecule?
A: The ΔH was -1.6 ± 0.072 kcal/mol.

B1: SYM6/ΔΔ: SYM6 FGF-1 mutant plus both Δ104-106 and Δ120-122 deletion mutations, SEQ ID NO: 1 (protein)
chain: FNLPPGNYKKPKLLYCSNGGHFLRILPDGTVDGTRDRSDQHIQFQLSAESVGEVYIKSTETGQYLAIDTDGLVYGSQTPNEECLFLERLEENHYNTYISKKHGWFLGIKKNGSVKGTHYGQKAILFLPLPVSSD
modifications: Human FGF-1 mutant SYM6DD
Q: With B1 as the molecule, how does the “Stoichiometry (n)” value read?
A: Its value is 1.00 ± 0.09.

Q: What about the ΔH of the same molecule?
A: The ΔH was -2.13 ± 0.287 kcal/mol.
